Assay results reported in PMC11961634.
No constants are given. Whether binding was seen depends on the method and setting. In cells and extracts the contact can be indirect. Binding calls can cover weak binding; strength is not graded here.

Target: T1, endogenous STAT1 (rat (endogenous in subchondral bone MSCs)) (UniProt Q9QXK0)
T1 sequence: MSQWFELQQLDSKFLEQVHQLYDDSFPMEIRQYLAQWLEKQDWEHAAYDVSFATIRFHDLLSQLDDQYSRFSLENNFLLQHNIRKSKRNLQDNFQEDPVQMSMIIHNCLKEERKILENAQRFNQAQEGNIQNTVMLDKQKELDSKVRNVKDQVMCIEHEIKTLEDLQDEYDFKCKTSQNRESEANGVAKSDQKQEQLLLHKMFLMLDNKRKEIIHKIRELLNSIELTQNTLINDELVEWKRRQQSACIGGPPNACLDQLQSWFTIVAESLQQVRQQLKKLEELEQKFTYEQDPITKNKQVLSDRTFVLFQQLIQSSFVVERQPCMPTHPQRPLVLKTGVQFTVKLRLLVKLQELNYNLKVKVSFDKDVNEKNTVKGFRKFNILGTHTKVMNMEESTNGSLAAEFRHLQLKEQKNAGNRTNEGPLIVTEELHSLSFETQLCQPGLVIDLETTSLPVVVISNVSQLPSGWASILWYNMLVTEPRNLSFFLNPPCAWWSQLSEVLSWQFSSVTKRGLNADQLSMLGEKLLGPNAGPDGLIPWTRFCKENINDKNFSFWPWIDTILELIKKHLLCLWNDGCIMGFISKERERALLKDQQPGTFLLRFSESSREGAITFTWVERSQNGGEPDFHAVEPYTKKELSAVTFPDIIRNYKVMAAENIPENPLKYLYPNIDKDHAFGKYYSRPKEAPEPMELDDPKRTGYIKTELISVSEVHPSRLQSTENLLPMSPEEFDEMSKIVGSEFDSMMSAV
Experiment: co-IP; whole cell extracts of MSCs (control, force, force with Piezo1 siRNA); lysates with the specified antibodies overnight at 4 °C, protein A/G plus agarose 2 h at 4 °C, western blot

Substance: endogenous CaMKII (enzyme)
- binding: binds
